These results are taken from PMC10154356.

The chains behind the UniProt entries cited, without tags or fusion partners.
UniProt Q13887: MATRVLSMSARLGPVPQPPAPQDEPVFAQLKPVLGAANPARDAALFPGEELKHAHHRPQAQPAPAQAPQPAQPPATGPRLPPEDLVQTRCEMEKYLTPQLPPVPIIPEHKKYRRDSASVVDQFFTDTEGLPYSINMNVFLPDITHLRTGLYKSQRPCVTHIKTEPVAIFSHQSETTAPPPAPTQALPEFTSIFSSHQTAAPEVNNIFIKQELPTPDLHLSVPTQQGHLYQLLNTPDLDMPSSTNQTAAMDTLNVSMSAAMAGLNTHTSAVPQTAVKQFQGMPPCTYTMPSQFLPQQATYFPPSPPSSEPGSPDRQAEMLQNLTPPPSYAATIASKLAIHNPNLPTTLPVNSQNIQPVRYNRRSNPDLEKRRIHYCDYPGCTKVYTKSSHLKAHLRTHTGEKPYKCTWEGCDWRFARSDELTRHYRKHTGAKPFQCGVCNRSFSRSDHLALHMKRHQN
UniProt Q92769: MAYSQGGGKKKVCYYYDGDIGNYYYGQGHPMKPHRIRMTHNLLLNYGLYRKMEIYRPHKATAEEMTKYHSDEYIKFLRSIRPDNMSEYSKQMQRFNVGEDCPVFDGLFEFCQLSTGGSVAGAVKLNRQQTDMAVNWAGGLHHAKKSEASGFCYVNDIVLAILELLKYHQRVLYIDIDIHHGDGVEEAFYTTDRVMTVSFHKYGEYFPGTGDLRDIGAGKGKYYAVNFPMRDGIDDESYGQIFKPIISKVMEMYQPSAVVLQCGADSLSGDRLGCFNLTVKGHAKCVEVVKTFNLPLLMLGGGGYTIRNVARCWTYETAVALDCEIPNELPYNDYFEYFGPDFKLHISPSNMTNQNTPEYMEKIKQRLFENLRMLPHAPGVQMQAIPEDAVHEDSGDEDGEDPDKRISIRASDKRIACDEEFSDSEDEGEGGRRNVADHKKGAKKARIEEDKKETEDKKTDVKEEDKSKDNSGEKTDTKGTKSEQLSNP

The target in experiment [1] is KLF5 (human (endogenous in primary human esophageal keratinocytes)) (UniProt Q13887). Briefly: ChIP-reChIP; formaldehyde cross-linked cells; first ChIP with anti-KLF5, second ChIP with anti-SIN3A or anti-HDAC2; on the TP53 promoter.
Experiment [2] shares this target. As to the kind of experiment: co-IP; lysates of EPC2 primary human esophageal keratinocytes (1% NP-40, 137 mM NaCl lysis buffer), 4 ug antibody overnight at 4 C, protein A/G magnetic beads, immunoblot; IgG as negative control; with and without KLF5 knock-down, SIN3A knock-down or UV irradiation.

No constants are given. Whether binding was seen depends on the method and setting. For some assays here: Binding seen in cells or lysates may run through a third protein. Some entries that bind do so weakly or less than the wild type.

Turning to HDAC2 (from UniProt Q92769 1-488), the binding entry in experiment [1] and in experiment [2] was “binds” each time.
